Negatives hold for the conditions tested. At least one verdict rests on a figure or table, not on a statement of the authors. Tags and fusion partners may be left off the protein sequences shown. For some assays here: Construct, isoform or probe ends are uncertain for at least one entry.
Tests used:
[1] = tested on: T1, NsrM (All0345) (Anabaena sp. strain PCC 7120); test: EMSA; conditions: 10 mM Bis-Tris-HCl pH 7.5, 40 mM KCl, 0.1 mg/mL BSA, 5% glycerol, 50 ng DNA, 50-100 ng ifpkn22 competitor, 30 min room temperature, recombinant protein, residues 1-290, protein details: His-tag (pET28 NdeI/SalI), probe letters rebuilt from the primers and the genome
T1 sequence (looked up): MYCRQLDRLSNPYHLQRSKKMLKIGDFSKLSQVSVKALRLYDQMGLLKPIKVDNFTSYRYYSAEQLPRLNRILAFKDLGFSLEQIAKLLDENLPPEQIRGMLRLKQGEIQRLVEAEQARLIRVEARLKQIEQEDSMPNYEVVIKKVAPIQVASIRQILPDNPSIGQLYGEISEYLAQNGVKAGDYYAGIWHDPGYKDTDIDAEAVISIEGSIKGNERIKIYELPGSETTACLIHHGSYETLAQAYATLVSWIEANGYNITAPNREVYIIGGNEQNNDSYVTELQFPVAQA

[2] = tested on: T2, NsrX (Alr1976) (Anabaena sp. strain PCC 7120); test: EMSA; conditions: 10 mM Bis-Tris-HCl pH 7.5, 40 mM KCl, 0.1 mg/mL BSA, 5% glycerol, 50 ng DNA, 50-100 ng ifpkn22 competitor, 30 min room temperature, recombinant protein, residues 1-121, protein details: His-tag (pET28 NdeI/SalI), probe letters rebuilt from the primers and the genome
T2 sequence (looked up): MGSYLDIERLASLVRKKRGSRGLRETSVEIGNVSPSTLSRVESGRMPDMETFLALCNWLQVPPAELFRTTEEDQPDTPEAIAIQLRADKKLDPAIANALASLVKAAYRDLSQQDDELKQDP

Row | Sequence | binding result ([1]; 1 mM DTT) | binding result [2] | binding result [1] | binding result ([2]; 100 uM Mn2+)
1 | CAACGATTTCAATACAAACCGAACCCACGGCGGCAAGACCCCTTAGCGTCGATGAATTTCAAAGTAACAAGCCCATGCCCAAGGTTTTGTAGTCTTTGTTACTCTAGCCACAATTACCTCTACGTTTTTTTATAACCTATGTTGGCAAAATGTTGAGTTTATGCCTTGTCCAGAGCGAAGTTGATAATATTATTAAATTTTTGTTATAGTTATTAAAAGTTCTTTTAGCTAAATGACTTACGTTTTAAAAACTAGCAATGTAACCCAACGTCATGAGCAAAAGAATACACAGAGTTAATTTTTGGC (double strand) [PnrrA] | binds | no binding | – | –
2 | CACAATCCCATACCTTTGTAGCAATTTCAACTTCGCTAACTCAAATCGAATTTTATTAAGTTTGTCAGTTGTCAGTTGTCAGTTGTCAGTTGTCATTGGTCAATAGTCCATAGTTATTTTCTTCTATACCCCTACACCCTGTCTTTCTTCAATTTCATAACTGGTACATCTACTCCATATCTGAACTGAGATATACAAAACTAAACTGTGTAGTTATATAATATGATTATACTAAACCGACTAGTTTAGTCAATAGTTATTTATTGCTTTGGGCTATAAACTATTGACTGTAGGCTATGGACTCTATTGATAACG (double strand) [Pall0809-07 (devBCA)] | – | – | no binding | binds
3 | CATCTTGGAAACCAAGTTGCACAAACATCAGTAAGACAATAAAAGCAATGCCAGCTACAGCTATAAGAAAACGAATTTTCTGTTGGACTAGCTGTAGCCATGCTAAAGGAATTTTAAAATTCATATTGATTTTGTCAGTTGACAGTTGATAGTTGATAGTTGTCAGTTGACTAATGACAATTAAATTTGAATCGCTACATCAACTTGTAAGTTGGTCAAACGTCCTACCCGTTCGCTATCTGCG (double strand) [PhgdC] | – | – | no binding | –
4 | CATTTGGAACTCCTTAATGTTTACTTGATATTCAGTACAGTTGCACCTTGTCGCATCTTTACTGAAGTCTCTGTTTGGAGAGATACAAAAGTCATCCTTTGGGAGTATATATACTCAAAATGGCTGTACATCCCATCGGCTCTACTTTTCAATGAATCATTCTAAGGTGTTGTAGCCAGAAGTGGATAGATGAAACCATTAATTTATATGGATTTCGGCATTTTTTTTATTTTTTAGCTCATTGTTGCACTCAAAACCACCCCAAAAGTAGGAAAAAATACCTAGTAAATACCCTTGTGGCTAGGGGAACTTCGACTAAAAAACGTTGCCAATCATCTGAATTTAAAATTCCAAATTTAAAATTCCAAATTTCAGAAAGCTAGATTTACTCTGAGTTTCCGGGTTTAAAGTTCTCATCCTTTTTGAGCAAATTGTGATGACAGAATAGGTTACTCAACTACTGAATGTTAAATTGTGTTAACAAAATTAATCTCTGTCATGTTTAACCAGGGTCATTTGGCGATCGCCAAGCCTTGTCATCACC (double strand) [PhanA] | – | no binding | – | –
5 | CCCATGTAGATGTGACTATGCCGATAATAAACATAATTTTTACTGAAATATGTTTATACAACATACCCAAGTTACAGTTAATAGCCAACAAGGTGAAAACGCTGACTAAGTAATTCGGAAATTAAAATCTAATCGTAAATTTGAATAGCTATTGGTTCAATCAGACTCTCAACAGCCAACTATAGTTAGGCTGTAATGTCTGAAAACAACCACTAAGGTTTTTTTGTAAAAAAAATTTTAGTGAAAACCTTAACCGTGTTAGTTCATCTAGAATCACGGGAACAATAGCAACAGTTAAATAGCTGACCGCAATCTATTGTTACCTGGAGCCATAGAGACGATCTTATGCCAGCAAC (double strand) [PsigC] | binds | no binding | – | –
6 | CGAAACAAAGTTGATGACACACCTGAAATATCGTAGATTCTAAACATTAGACAGTTTTGTAGTCTTTGTTACAGAACGTCTGGATTACAGGTAATATTAACCTTTCTTTCGACATCTGCACAAAAGGGAGAAAGTTAATCTCATAGGGGTCAACTTTGACATAAAATCCTTAAGTAACAGATAGATTGTTTTTGTGCCGAATCTATTTTTAATAGCACAAAAATTTACTGGTGCGTAGTGCAACCAAATTAATATCAAACCATAGATAGCAAAGATTGGGAGAAGAAGGAATGCGCGATGCAGTAACA (double strand) [PglnA] | – | – | no binding | binds
7 | CGAAGATTGAATCTTCCTGTGTCAGTTGTATTTCAGGTAAGCCATAACTATTATTCAGTTTTTGAGATTATATACAATAAAGTTTCTGTAAGAAGTTGTTCTAGGTTTTTAAAGCTTTTCACATCAACTTTATTTTAAAGTCAACAATAGTTTGAGTTTTTACTGAACTTTTCGTGTTTACACGTAAGTAAATCCCTCATTTTTTTTGATTTTATTAAAGCTAGACGTAGTTGTATGCTAATTACGTAAAATTACCCAATGTACGTTTTGTTCATCATCAAATTCAGGAGTGGGAGATGAGCAATTTTATCAAAAGTAAAATC (double strand) [Pasr1734 distal] | binds | no binding | – | –
8 | CGCTGGTTATGAAGCTGGTTTGTCATCTAGAATAGAAACCGATTGCTAAAGATTATTTCTTCCAACATTCCCGATGGAAAAGGGATTATAGGTTAGAAGCTATTAGCTAGTTTTTTTATCCAGAACCAACAAAGGACTTGGCTAGACTAACAGGATTCTGACAAATAATCAGGGAAACTACTAAAAAATCGGCAGAATACTTGTTATTTGATACTAGCAAGTCACCATGTAAACATTCATATCAAAACTACTCAAACACTATGAAGTCATGCGAATTATCTAAAAGGTGAATTACTTATATTTCTTATCAGCCAAGATAATACAGGTGTTTATAAACATTTGTAGTGGTTATACAAATGAGGGTGGTTTAGTGGTTTTTGCGGGAGGGTAAGGAGATTTGAGGG (double strand) [PhepK] | binds | – | – | binds
9 | CTAATAAGTAACCTACAAGGACTTTCCCTATTATCCGGAACTTATCTGCTCTTTAATAGCGTCAATAAATTTGCTATTTTTAAGACTTTTGGGCTGCACCCGGATTTAGGAGATAGCAACACAACGGCCAACAATGGGAGATTATAATCGCACAATCTCTCCTTGAGGTGAATACTCTATTCCTGAGTAATTTTACTCAGATGCTGACCGATTATTTCCAGAAATAACAGGAAGTGATTTTTTGAAAAAGTCACCTGCCGACTACGCCAAACTCACTAACGCCCATTGAATCAATAGAGCGTTCTTATCTGCCGAGATGCTGACAATTTTTTTGCTCTTATGGCAGTGTAGGTCGTTGGCTGGAGGGAAAATTATAGAC (double strand) [PhetR middle] | binds | – | – | binds
10 | CTTTCTATACGGTGTCAAGTTTACTTCTATTCGGTTGGTATTTTCAGTAGACTTGACAGTACTGGAGACCTAGAATACATTAAGAAATATATAGCAATTTAATATTGACTTAATATTTTTCCTGCAAGAAAAGGCTTTTTGGCAAACCCAAAATTTTTTCTGGTCTGTCTAATATCACTTTCTAATCAGTCACAATAATATCCTGCAACCAAAAATAAAGCACTTGAAACCTAGCACTTGACGAGCAGGTAAAAACGTATATTATTAAATAACGAGCGTTCGATATAAATAATCCGTAATTATGCCTAAGATTGTTGATCATGACCAATATCGGAAAGAAC (double strand) [Palr3646-49] | binds | no binding | – | –
11 | GCGTTTAGTTTATCCGCAAAACCATAAAGCCAATACCCACAGTCGTCACAGGTTGTATTTAAGTTTATGTTAGGGTCTAGTGAAAGCCGAGACTATGAATTCAGCCGCAACAGCAACTATTCCAACCGCAAATCTTCTGGAAGAAAACTCTTTTGGTACAGAGGTCATCTTCAAACTGATTTACAAAGAGCTAAAACAGTTTACCAAAGCTTCCGACCAGAATTGTCATGATGTAGCAAATCGTATCACTACAGAAGTATACCGAATTTGCACCGAAAGTAAACGGATTCAAGCTTCTGGTGCTGTAGAAAGTTCAGCCATGACCCTAGCCAAGCATCGGCTACAACAATGCTTGAG (double strand) [PhetZ] | – | – | no binding | binds
12 | GCTTTGAATTTCTCAAACTTATTGAGGCTGGCTTTGGGGGTAGTTACTGTATCTGTCATGAGCTGGTTCTCATAAAGTTTTTTTGCTCAAGATCAATCCACCCGTAGTCTTTGCTAGTTCTACGAGGTCTAGTGATAGCAATTTAGTAATCTTGAAAGAACCTCTCCCCCAACCCCTCTCTCTTTAAAAGTTCTGTTCGGAGGAAACCTCCGCTCAGACTTTTCGCTCCGACGCGGAGAGGGGAGTTTGGCTCCCACTTCCCTACAAGGGAAGGGGGCTGGGGGGTAAGGTTTTTGATTAATGAATCGATGCTCTAATAGTGAA (double strand) [Pnir (fragment not stated)] | binds | – | – | –
13 | GGAGCTTGATTGGATATGTGAGATGGCAAAACAAACGATTAACTTGTAACAAAATTGTCTCGCCCCAACCCTAAATCTACGACATATAGAGGAGCGCTAGTTCAGATACCTGTTAGGTCAACCGTTTAATATCTGCACAGCTATAAATATCACTCTGAATTTTAGTTAATTAGATTAATTTTTATTTAAAGGAATTAGAATTTAGTATCAAAAATAACAATTCAATGGTTAAATATCAAACTAATATCACAATCTAAAGCTTGACCTTGTGAACTCTCAGGGAGCTAGCTGATTCATCAAGGGGAAATTTAACCAAGATATGAGTAGACGAATTAACCGACGCAGA (double strand) [PurtA] | – | – | no binding | binds
